Patent EP0364819A2 (The Administrators of The Tulane Educational Fund, priority 1988, dated 1990)
Square brackets hold non-standard residues; d marks the D form. pGlu = O=C1CC[C@@H](C(=O)O)N1

Assay: general procedure: Boc solid-phase peptide synthesis; benzhydrylamine HCl resin, about 1 meq NH2/g (Advanced ChemTech); DIC
Details: whole synthesis

Question: What does the source list for [pGlu]HWSY-OH?
Answer: final HPLC purity (analytical HPLC (HP-1090, W-Porex C18), scale of the general procedure 1 g resin, about 1 mmol): >95%; crude mass (scale 1 mmol): 686 mg; isolated mass (scale 1 mmol): 350 mg
